Laboratory results from PubChem BioAssay AID330 (DTP/NCI, 2004).
The list is a part of this screen's results and no random one: it is rich in T/C values a quarter to a half above the control, in often repeated tests (any T/C) and in doses without a T/C. Other doses and runs of a compound stand elsewhere. T/C gives the treated animals as a percentage of the vehicle group. Some doses have a count of surviving animals in place of a T/C: the source files T/C as zero there, which appears to mark a toxic dose or a test without result, not a measured value. Some doses without a T/C left all or most animals alive at the check, yet need not have been tolerated: the source hardly ever lists a survival T/C far under the control, and the zero likely stands for such cases as well. Survivors were counted at the toxicity check, usually on the fifth day, unless a day is given; later deaths do not show. Schedules are NCI's codes, taken here to give the interval after Q, in days (D) or hours (H), and the number of doses after X. Some entries hold several experiments; the values are given in rising order. Where survival is the endpoint, this PubChem deposit counts one and a half times the control or more as active, and values a quarter to a half above the control carry no call in these data; other NCI protocols may use other cut-offs. Some T/C values carry the count of animals alive at the toxicity check (mostly the fifth day); without a count, all were alive then.

Tested on: P388 leukemia ip, CD2F1 mice, survival T/C
Experiment: NCI In Vivo Anticancer Drug Screen. Data for tumor model P388 Leukemia (intraperitoneal) in CD2F1 (CDF1) mice
Settings: T/C endpoint: median survival time, higher T/C = longer survival
[1] = dose: 100.0 mg/kg/injection, schedule: Q01DX009 (ip), vehicle: Klucel (hydroxypropylcellulose) (HPC)
[2] = dose: 200.0 mg/kg/injection, schedule: Q01DX009 (ip), vehicle: Klucel (hydroxypropylcellulose) (HPC)
[3] = dose: 100.0 mg/kg/injection, schedule: Q04DX003 (ip), vehicle: Klucel (hydroxypropylcellulose) (HPC)
[4] = dose: 25.0 mg/kg/injection, schedule: Q01DX005 (ip), vehicle: saline with Tween-80
[5] = dose: 100.0 mg/kg/injection, schedule: Q01DX005 (ip), vehicle: saline with Tween-80
[6] = dose: 200.0 mg/kg/injection, schedule: Q01DX005 (ip), vehicle: saline with Tween-80
[7] = dose: 50.0 mg/kg/injection, schedule: Q01DX009 (ip), vehicle: saline
[8] = dose: 240.0 mg/kg/injection, schedule: Q01DX005 (ip), vehicle: Klucel (hydroxypropylcellulose) (HPC)
[9] = dose: 50.0 mg/kg/injection, schedule: Q01DX005 (ip), vehicle: saline with Tween-80
[10] = dose: 100.0 mg/kg/injection, schedule: Q01DX005 (ip), vehicle: Klucel (hydroxypropylcellulose) (HPC)
[11] = dose: 50.0 mg/kg/injection, schedule: Q01DX005 (ip), vehicle: Klucel (hydroxypropylcellulose) (HPC)
[12] = dose: 200.0 mg/kg/injection, schedule: Q01DX005 (ip), vehicle: Klucel (hydroxypropylcellulose) (HPC)

## CNc1ccc(/C=C/c2ccnc3ccccc23)cc1
dose: 12.5 mg/kg/injection, schedule: Q01DX009 (ip), vehicle: Klucel (hydroxypropylcellulose) (HPC)
  T/C: 132 % of control
dose: 25.0 mg/kg/injection, schedule: Q01DX009 (ip), vehicle: Klucel (hydroxypropylcellulose) (HPC)
  survivor count: 6 of 6
dose: 50.0 mg/kg/injection, schedule: Q01DX009 (ip), vehicle: Klucel (hydroxypropylcellulose) (HPC)
  survivor count: 5 of 6
[1]
  survivor count: 0 of 6
[2]
  survivor count: 0 of 6
dose: 400.0 mg/kg/injection, schedule: Q01DX009 (ip), vehicle: Klucel (hydroxypropylcellulose) (HPC)
  survivor count: 0 of 6

## CCN(CC)CCNc1ccc(COC(=O)Nc2ccccc2)c2sc3ccccc3c(=O)c12
dose: 12.5 mg/kg/injection, schedule: Q01DX005 (ip), vehicle: Klucel + Tween-80
  survivor count: 1 of 6
dose: 25.0 mg/kg/injection, schedule: Q01DX005 (ip), vehicle: Klucel + Tween-80
  survivor count: 0 of 6
dose: 50.0 mg/kg/injection, schedule: Q01DX005 (ip), vehicle: Klucel + Tween-80
  survivor count: 0 of 6

## COC(=O)Nc1csc2c1NC(=O)CCCC2
[3]
  T/C: 142 % of control

## O=C(c1cc2c(cc1Br)OCO2)N1CCc2ccccc21
dose: 12.5 mg/kg/injection, schedule: Q01DX009 (ip), vehicle: other
  survivor count: 6 of 6
dose: 25.0 mg/kg/injection, schedule: Q01DX009 (ip), vehicle: other
  survivor count: 6 of 6

## CNC(=O)OCc1c(COC(=O)NC)c2n(c1C)CS(=O)C2 (centres undefined)
dose: 400.0 mg/kg/injection, schedule: Q01DX005 (ip), vehicle: saline with Tween-80
  T/C: 125 % of control

## CN(C)[C@@H]1C(=O)C(C(N)=O)=C(O)[C@@]2(O)C(=O)C3=C(O)c4c(O)ccc(Cl)c4[C@@](C)(O)[C@H]3C[C@@H]12.[Cl][Sb]([Cl])[Cl]
[4]
  T/C: 127 % of control
[5]
  survivor count: 1 of 6
[6]
  survivor count: 0 of 6

## CCC1CN1P(=O)(Oc1ccc2ccccc2c1)N1CC1CC (centres undefined)
dose: 22.0 mg/kg/injection, schedule: Q01DX009 (ip), vehicle: saline with Tween-80
  T/C: 137 % of control
dose: 33.0 mg/kg/injection, schedule: Q01DX009 (ip), vehicle: saline with Tween-80
  T/C: 132 % of control
dose: 44.0 mg/kg/injection, schedule: Q01DX009 (ip), vehicle: saline with Tween-80
  T/C: 127 % of control
dose: 66.0 mg/kg/injection, schedule: Q01DX009 (ip), vehicle: saline with Tween-80
  T/C: 131 % of control
dose: 100.0 mg/kg/injection, schedule: Q04DX003 (ip), vehicle: saline with Tween-80
  T/C: 136 % of control [4 of 6 alive]
dose: 400.0 mg/kg/injection, schedule: Q01DX009 (ip), vehicle: saline with Tween-80
  survivor count: 4 of 6

## C#CCOCCCC(=C)C
dose: 12.5 mg/kg/injection, schedule: Q01DX009 (ip), vehicle: saline
  T/C: 144 % of control
dose: 25.0 mg/kg/injection, schedule: Q01DX009 (ip), vehicle: saline
  T/C: 144 % of control
[7]
  survivor count: 5 of 6

## COc1ccc(OC)c(NC(=O)Sc2c(Cl)c(Cl)nc(Cl)c2Cl)c1
[1]
  T/C: 128 % of control
[2]
  T/C: 126 % of control

## CCOC(=O)c1c(C(=O)Nc2ccccc2)c(-c2ccccc2)n(NC(=O)c2cccc(Cl)c2)c1C
[8]
  survivor count: 1 of 6

## [Cl][Al]([Cl])[Cl]
[7]
  survivor count: 2 of 6
dose: 100.0 mg/kg/injection, schedule: Q01DX009 (ip), vehicle: saline
  survivor count: 5 of 6
dose: 100.0 mg/kg/injection, schedule: Q04DX003 (ip), vehicle: saline
  survivor count: 6 of 6
dose: 200.0 mg/kg/injection, schedule: Q01DX009 (ip), vehicle: saline
  survivor count: 4 of 6
dose: 400.0 mg/kg/injection, schedule: Q04DX003 (ip), vehicle: saline
  survivor count: 3 of 6

## C/C(=N\NC(=S)N1CCN(c2ccccn2)CC1)c1cccc(C)n1
[4]
  T/C: 132 % of control
[9]
  T/C: 136 % of control
  survivor count: 4 of 6
[5]
  survivor count: 0 of 6
[6]
  survivor count: 0 of 6

## COC(=O)/C(C#N)=C/c1cc(OC)c(O)cc1Br
[10]
  survivor count: 6 of 6

## COc1ccc2nc(NCCNCCO)cc(NCCNCCO)c2c1
dose: 120.0 mg/kg/injection, schedule: Q01DX005 (ip), vehicle: water
  survivor count: 0 of 6
dose: 240.0 mg/kg/injection, schedule: Q01DX005 (ip), vehicle: water
  survivor count: 0 of 6

## Cc1ccc(-c2n[nH]c(=O)c(C#N)c2-c2ccc(C)cc2)cc1
dose: 200.0 mg/kg/injection, schedule: Q04DX002 (ip), vehicle: saline with Tween-80
  survivor count: 6 of 6

## COc1ccc(/C=N/Nc2nnc3c4cccnc4c4ccccc4c3n2)cc1OC
dose: 3.12 mg/kg/injection, schedule: Q01DX001 (ip), vehicle: saline with Tween-80
  survivor count: 6 of 6
dose: 6.25 mg/kg/injection, schedule: Q01DX001 (ip), vehicle: saline with Tween-80
  survivor count: 6 of 6
dose: 12.5 mg/kg/injection, schedule: Q01DX001 (ip), vehicle: saline with Tween-80
  T/C: 89, 90, 97, 131 % of control
dose: 25.0 mg/kg/injection, schedule: Q01DX001 (ip), vehicle: saline with Tween-80
  T/C: 95, 100, 102, 108 % of control
dose: 100.0 mg/kg/injection, schedule: Q01DX001 (ip), vehicle: saline with Tween-80
  survivor count: 0 of 6

## O=C1C(=O)c2ccc3c(c2-c2cc4c(cc21)OCO4)OCO3
[8]
  survivor count: 6 of 6

## Oc1ccccc1C=NCc1ccccc1.[CH-]=C([CH2-])C.[Pd+2]
dose: 50.0 mg/kg/injection, schedule: Q04DX003 (ip), vehicle: Klucel (hydroxypropylcellulose) (HPC)
  survivor count: 0 of 6
[3]
  survivor count: 0 of 6
dose: 200.0 mg/kg/injection, schedule: Q04DX003 (ip), vehicle: Klucel (hydroxypropylcellulose) (HPC)
  survivor count: 0 of 6

## NC(=O)/C(N=Nc1ccccc1)=N\Nc1ccccc1
[11]
  survivor count: 6 of 6
[10]
  survivor count: 5 of 6
[12]
  survivor count: 6 of 6

## C[n+]1c(-c2ccc(/C=N/NC(=O)C(=O)N/N=C/c3ccc(-c4cn5ccccc5[n+]4C)cc3)cc2)cn2ccccc21
dose: 30.0 mg/kg/injection, schedule: Q01DX005 (ip), vehicle: saline
  survivor count: 3 of 6
dose: 60.0 mg/kg/injection, schedule: Q01DX005 (ip), vehicle: saline
  survivor count: 0 of 6
dose: 120.0 mg/kg/injection, schedule: Q01DX005 (ip), vehicle: saline
  survivor count: 0 of 6
dose: 240.0 mg/kg/injection, schedule: Q01DX005 (ip), vehicle: saline
  survivor count: 0 of 6

## COC(=O)[C@H]1[C@H]2C[C@@H]3c4[nH]c5ccccc5c4CCN3C[C@H]2C[C@@H](OC(=O)c2cc(OC)c(OC)c(OC)c2)[C@@H]1OC
[9]
  survivor count: 6 of 6
[5]
  survivor count: 6 of 6
[6]
  survivor count: 4 of 6

## COc1cc([C@@H]2c3cc4c(cc3[C@H](OC(=O)c3ccccc3C(=O)O)[C@H]3COC(=O)[C@H]23)OCO4)cc(OC)c1OC
[11]
  T/C: 128 and 130 % of control
[10]
  survivor count: 1 of 6 and 3 of 6
[12]
  survivor count: 0 of 6
